Substitutions are numbered along the chain they refer to. In names and notes the source's numbering stands. Results are given in words; binding and its absence hold for the method and conditions named. In cells and extracts the contact can be indirect. Some entries that bind do so weakly or less than the wild type. Where a sequence is shown, tags or fusion partners need not be part of it.
T1: Cdc10-3Flag (S. cerevisiae) (UniProt P25342)
T1 sequence: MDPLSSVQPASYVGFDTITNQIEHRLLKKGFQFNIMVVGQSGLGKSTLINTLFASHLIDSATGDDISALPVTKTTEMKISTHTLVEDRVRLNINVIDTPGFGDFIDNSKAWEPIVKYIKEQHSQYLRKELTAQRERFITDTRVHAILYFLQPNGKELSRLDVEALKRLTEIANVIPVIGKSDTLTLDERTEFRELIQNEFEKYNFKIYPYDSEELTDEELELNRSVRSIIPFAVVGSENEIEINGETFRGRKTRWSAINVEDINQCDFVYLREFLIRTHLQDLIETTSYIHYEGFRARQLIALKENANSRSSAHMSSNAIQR

T2: Cdc10-3Flag (S. cerevisiae), P25342
T2 chain: T1 sequence

B1: Hof1-P1A-3HA (protein, UniProt Q05080 1-669)
chain: MSYSYEACFWDPNDNGVNILLGHISQGIRSCDSMILFFKQRSELEKDYARRLGAITGKLDKDIGTNMDYGKLNETFNVVLSVEKARAQSHSKQSEILFRQIYTDTKAFAANLQARYTTLSGKIERLRMDKFNKKKGCEVLQKKLQDAQIRFRDLQLNENNMIGAKRVEHNKRELLKWESNSQEYKVQLDVLKQEYKASQKFWIHEWAQLSCELQEMENARISFLQSKLQQFATSSMETYILEQTKMDMLTNHLNSFTAADEISTFSKENGTGRLKHKTSKGDMNSSANWAQMSSISTTSKKTESYMDNIRKLAAQLKETENKRKLASIDKYEKPLPAPEVAMATQFRNSAPVIRNETKVVANPTLALRAAPVQLQSNVDDSVLRQKPDKPRPIVGEEQLKPDEDSKNPDEKGLMVHKRNQALAAPSESSSSNPTDFSHIKKRQSMESMTTSVSSMANSIDDSQRFAKSWNSSNRKRKAMSHLQVPSSASSRSDDGGRTPNSAHNLNEDDYNTRRDTSTSTILFKPPVAVRGTSRGHTHRQSMIMQDSSNPIEDALYEMERIQASSKPGTKTGNIMDERGVVRDRGITVTLPIVTSEGFPVIEYAKAMYPLIGNEAPGLANFHKGDYLLITEIVNKDWYKGEVYDNDRIDRNHRIGLIPYNFIQLLHQGL
B2: MBP-Hof1-BFP-6His (natural protein, S. cerevisiae, UniProt Q05080 1-669, looked up)
chain: MSYSYEACFWDPNDNGVNILLGHISQGIRSCDSMILFFKQRSELEKDYARRLGAITGKLDKDIGTNMDYGKLNETFNVVLSVEKARAQSHSKQSEILFRQIYTDTKAFAANLQARYTTLSGKIERLRMDKFNKKKGCEVLQKKLQDAQIRFRDLQLNENNMIGAKRVEHNKRELLKWESNSQEYKVQLDVLKQEYKASQKFWIHEWAQLSCELQEMENARISFLQSKLQQFATSSMETYILEQTKMDMLTNHLNSFTAADEISTFSKENGTGRLKHKTSKGDMNSSANWAQMSSISTTSKKTESYMDNIRKLSSQLKETENKRKLASIDKYEKPLPSPEVTMATQFRNSTPVIRNETKVVANPTLSLRSSPVQLQSNVDDSVLRQKPDKPRPIVGEEQLKPDEDSKNPDEKGLMVHKRNQSLSSPSESSSSNPTDFSHIKKRQSMESMTTSVSSMANSIDDSQRFAKSWNSSNRKRKSMSHLQVPSSASSRSDDGGRTPNSAHNLNEDDYNTRRDTSTSTILFKPPVAVRGTSRGHTHRQSMIMQDSSNPIEDALYEMERIQSSSKPGTKTGNIMDERGVVRDRGITVTLPIVTSEGFPVIEYAKAMYPLIGNEAPGLANFHKGDYLLITEIVNKDWYKGEVYDNDRIDRNHRIGLIPYNFIQLLHQGL
notes: F-BAR protein Hof1, S. cerevisiae, residues 1-669 (mTagBFP fragment cloned into pBG2163); BFP amplified from pHPOM1-mTagBFP2; also called Hof1 tagged with blue fluorescent protein; pSP1950; source: E. coli BL21 (DE3) Rosetta, purified (Ni-NTA, amylose); not shown: MBP, N-terminal, kept; mTagBFP, C-terminal, kept
B3: Hof1-P4E-3HA (protein, UniProt Q05080 1-669)
chain: B2 chain with S313E, S314E, S337E, T341E, T350E, S366E, S421E, S423E, S424E, S563E
B4: Hof1-P4A-3HA (protein, UniProt Q05080 1-669)
chain: B1 chain with A369S, A370S, A478S
B5: Hof1-P1E-3HA (protein, UniProt Q05080 1-669)
chain: MSYSYEACFWDPNDNGVNILLGHISQGIRSCDSMILFFKQRSELEKDYARRLGAITGKLDKDIGTNMDYGKLNETFNVVLSVEKARAQSHSKQSEILFRQIYTDTKAFAANLQARYTTLSGKIERLRMDKFNKKKGCEVLQKKLQDAQIRFRDLQLNENNMIGAKRVEHNKRELLKWESNSQEYKVQLDVLKQEYKASQKFWIHEWAQLSCELQEMENARISFLQSKLQQFATSSMETYILEQTKMDMLTNHLNSFTAADEISTFSKENGTGRLKHKTSKGDMNSSANWAQMSSISTTSKKTESYMDNIRKLEEQLKETENKRKLASIDKYEKPLPEPEVEMATQFRNSEPVIRNETKVVANPTLELREEPVQLQSNVDDSVLRQKPDKPRPIVGEEQLKPDEDSKNPDEKGLMVHKRNQELEEPSESSSSNPTDFSHIKKRQSMESMTTSVSSMANSIDDSQRFAKSWNSSNRKRKEMSHLQVPSSASSRSDDGGRTPNSAHNLNEDDYNTRRDTSTSTILFKPPVAVRGTSRGHTHRQSMIMQDSSNPIEDALYEMERIQESSKPGTKTGNIMDERGVVRDRGITVTLPIVTSEGFPVIEYAKAMYPLIGNEAPGLANFHKGDYLLITEIVNKDWYKGEVYDNDRIDRNHRIGLIPYNFIQLLHQGL
B6: Cdc11, P32458 1-415 (protein)
chain: MSGIIDASSALRKRKHLKRGITFTVMIVGQSGSGRSTFINTLCGQQVVDTSTTILLPTDTSTEIDLQLREETVELEDDEGVKIQLNIIDTPGFGDSLDNSPSFEIISDYIRHQYDEILLEESRVRRNPRFKDGRVHCCLYLINPTGHGLKEIDVEFIRQLGSLVNIIPVISKSDSLTRDELKLNKKLIMEDIDRWNLPIYNFPFDEDEISDEDYETNMYLRTLLPFAIIGSNEVYEMGGDVGTIRGRKYPWGILDVEDSSISDFVILRNALLISHLHDLKNYTHEILYERYRTEALSGESVAAESIRPNLTKLNGSSSSSTTTRRNTNPFKQSNNINNDVLNPASDMHGQSTGENNETYMTREEQIRLEEERLKAFEERVQQELLLKRQELLQREKELREIEARLEKEAKIKQEE

Target: T1, Cdc10-3Flag (S. cerevisiae)
Experiment: co-IP; anti-Flag M2 on protein G dynabeads; extracts of nocodazole-arrested yeast cells in TBSN buffer (100 mM NaCl, 25 mM Tris-Cl pH 7.4, 2 mM EDTA, 0.1% NP-40, 1 mM DTT), 1 h at 4 °C; eluted with 3xFlag peptide; blots with anti-HA, anti-Flag and anti-Cdc11
Details: not given

Row | binding | Binder
1 | binds | B1
2 | binds | B2
3 | binds | B3
4 | binds | B4
5 | binds | B5

Target: T2, Cdc10-3Flag (S. cerevisiae), P25342
Experiment: as above
Details: remark: other sources report otherwise

Row | binding | Binder
6 | binds | B6

Reference: PMC11035697, “Phosphorylation of the F-BAR protein Hof1 drives septin ring splitting in budding yeast” (Nature Communications, 2024)
